# Data: patent US20180171002A1 (BERG, published 2018)
# Chains of the proteins cited; added tags and fusions are not shown. Residues count along the entry.
# UniProt P21333, residues 2-2647: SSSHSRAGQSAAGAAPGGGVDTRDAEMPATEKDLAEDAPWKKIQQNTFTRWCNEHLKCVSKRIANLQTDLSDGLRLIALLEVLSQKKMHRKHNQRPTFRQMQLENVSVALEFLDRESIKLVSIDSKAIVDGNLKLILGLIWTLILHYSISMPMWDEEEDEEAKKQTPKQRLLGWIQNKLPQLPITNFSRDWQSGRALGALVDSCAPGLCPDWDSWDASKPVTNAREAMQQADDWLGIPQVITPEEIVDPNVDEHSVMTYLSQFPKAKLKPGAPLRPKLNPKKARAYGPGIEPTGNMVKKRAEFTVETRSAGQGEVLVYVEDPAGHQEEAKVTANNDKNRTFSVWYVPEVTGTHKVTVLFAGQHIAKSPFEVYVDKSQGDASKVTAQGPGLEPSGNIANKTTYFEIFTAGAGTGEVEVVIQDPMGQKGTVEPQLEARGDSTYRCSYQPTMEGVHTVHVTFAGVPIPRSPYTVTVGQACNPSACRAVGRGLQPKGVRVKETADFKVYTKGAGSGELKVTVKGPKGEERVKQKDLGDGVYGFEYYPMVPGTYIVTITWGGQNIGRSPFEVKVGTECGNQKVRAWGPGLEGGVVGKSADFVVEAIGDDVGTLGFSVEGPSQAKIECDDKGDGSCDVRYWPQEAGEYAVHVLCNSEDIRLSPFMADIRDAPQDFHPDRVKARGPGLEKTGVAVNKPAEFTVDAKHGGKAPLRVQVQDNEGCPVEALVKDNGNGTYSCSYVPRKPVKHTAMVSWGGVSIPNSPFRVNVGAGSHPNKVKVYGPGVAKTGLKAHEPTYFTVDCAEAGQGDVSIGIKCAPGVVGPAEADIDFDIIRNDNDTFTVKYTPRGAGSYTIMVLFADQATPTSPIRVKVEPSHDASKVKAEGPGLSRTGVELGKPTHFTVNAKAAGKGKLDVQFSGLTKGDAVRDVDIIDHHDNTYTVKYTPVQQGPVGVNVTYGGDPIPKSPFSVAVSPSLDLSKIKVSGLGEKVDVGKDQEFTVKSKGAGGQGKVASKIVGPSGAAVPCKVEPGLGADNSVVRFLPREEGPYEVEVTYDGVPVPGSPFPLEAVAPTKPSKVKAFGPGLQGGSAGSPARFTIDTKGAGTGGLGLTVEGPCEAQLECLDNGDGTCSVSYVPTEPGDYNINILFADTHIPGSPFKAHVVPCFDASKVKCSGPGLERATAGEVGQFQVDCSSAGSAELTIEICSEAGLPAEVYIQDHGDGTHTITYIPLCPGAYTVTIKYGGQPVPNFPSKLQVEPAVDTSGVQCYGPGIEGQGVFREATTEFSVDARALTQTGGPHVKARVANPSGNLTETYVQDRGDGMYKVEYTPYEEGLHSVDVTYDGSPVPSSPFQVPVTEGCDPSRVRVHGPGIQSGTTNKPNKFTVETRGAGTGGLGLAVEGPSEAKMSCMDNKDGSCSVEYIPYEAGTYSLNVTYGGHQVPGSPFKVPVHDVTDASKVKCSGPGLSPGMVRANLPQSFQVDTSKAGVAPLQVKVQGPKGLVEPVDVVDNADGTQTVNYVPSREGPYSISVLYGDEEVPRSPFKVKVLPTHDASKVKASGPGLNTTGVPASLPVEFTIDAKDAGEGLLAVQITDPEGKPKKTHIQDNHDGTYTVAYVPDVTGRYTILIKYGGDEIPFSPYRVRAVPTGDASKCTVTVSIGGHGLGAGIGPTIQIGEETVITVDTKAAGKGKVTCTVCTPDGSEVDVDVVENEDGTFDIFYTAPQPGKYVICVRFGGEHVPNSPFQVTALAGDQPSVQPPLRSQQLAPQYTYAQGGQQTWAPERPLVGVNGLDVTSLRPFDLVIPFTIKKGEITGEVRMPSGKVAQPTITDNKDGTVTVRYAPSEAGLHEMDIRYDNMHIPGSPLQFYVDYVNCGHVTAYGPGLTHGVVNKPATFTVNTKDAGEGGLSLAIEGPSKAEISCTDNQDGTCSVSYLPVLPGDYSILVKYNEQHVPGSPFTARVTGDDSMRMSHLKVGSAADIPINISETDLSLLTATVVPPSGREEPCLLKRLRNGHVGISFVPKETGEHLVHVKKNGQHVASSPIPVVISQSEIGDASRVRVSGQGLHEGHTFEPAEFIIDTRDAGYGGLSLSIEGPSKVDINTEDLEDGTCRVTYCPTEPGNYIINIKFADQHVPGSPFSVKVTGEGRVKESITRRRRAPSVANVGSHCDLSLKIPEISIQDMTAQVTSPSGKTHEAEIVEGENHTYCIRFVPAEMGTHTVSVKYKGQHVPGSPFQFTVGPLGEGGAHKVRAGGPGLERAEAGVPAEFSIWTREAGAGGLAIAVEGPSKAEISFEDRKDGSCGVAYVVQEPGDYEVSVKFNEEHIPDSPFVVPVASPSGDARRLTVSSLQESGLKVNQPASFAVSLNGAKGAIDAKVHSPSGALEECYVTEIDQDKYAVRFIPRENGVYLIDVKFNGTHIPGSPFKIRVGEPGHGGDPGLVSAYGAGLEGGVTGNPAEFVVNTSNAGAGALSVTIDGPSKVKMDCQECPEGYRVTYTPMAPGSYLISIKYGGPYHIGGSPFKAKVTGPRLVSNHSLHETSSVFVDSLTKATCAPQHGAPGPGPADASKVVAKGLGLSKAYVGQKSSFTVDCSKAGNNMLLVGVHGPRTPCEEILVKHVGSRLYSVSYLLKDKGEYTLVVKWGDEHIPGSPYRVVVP
# No constants are given. Whether binding was seen depends on the method and setting. Some entries that bind do so weakly or less than the wild type.
# T1: peptides containing motif ERPLVGV (linear 15 mer peptides of the FLNA array) (human)
# T1 sequence (peptide): ERPLVGV
# How the values were obtained:
# [1] = target: FLNA (standards and FLNA in human serum or plasma, Examples 5 and 6) (human) (UniProt P21333); assay: sandwich ELISA, 6E3 capture, biotin-linked 3F4 detection
# [2] = target: FLNA (standards and FLNA in human serum or plasma, Examples 5 and 6) (human) (UniProt P21333); assay: immunoprecipitation from human serum with resins of 2C12, 3F4 and 6E3 used together, then MRM
# [3] = target: T1, peptides containing motif ERPLVGV (linear 15 mer peptides of the FLNA array) (human); assay: linear 15 mer peptide array
# [4] = target: FLNA (standards and FLNA in human serum or plasma, Examples 5 and 6) (human) (UniProt P21333); assay: sandwich ELISA, 6E3 coated as capture
# [5] = target: T1, peptides containing motif ERPLVGV (linear 15 mer peptides of the FLNA array) (human); assay: HiSense linear peptide array (15 mer peptides of FLNA aa 1443-2131), ELISA value per peptide; the antibody is named by the legend, not on the sheet
binding [1],binding [2],binding [3],binding [4],binding [5],Binder
binds,binds,–,–,–,"anti-FLNA murine monoclonal antibody 3F4 (antibody, IgG2b, V domains shown, also called clone 3F4) VH: EVQLQESGPGLAKPSQTLSLTCSVTGYSITSNYWNWIRKFPGNKLEYMGYISFSGSTYYNPSLKSRISITRDTSKNQYYLQLNSVTTEDTATYYCARWNYYAMDYWGQGTSVTVSS VL: DFLLTQSPAILSVSPGERVSFSCRASQSIGTNIHWYQQRTNGSPRLLIKFASESISGIPSRFSGSGSGTDFTLTINSVESEDIADYYCQQSNSWPYTFGGGTKLEIK"
–,binds,–,–,–,"anti-FLNA murine monoclonal antibody 2C12 (antibody, IgG1, V domains shown, also called clone 2C12) VH: QVQLKQSGPGLVQPSQSLSITCTVSGFSLTNYGVHWVRQSPGKGLEWLGVIWRGGSTDYNAAFMSRLSITKDNSKSQVFFKMNSLQADDTAIYFCALRGNYVHYYLMDYWGQGTSVTVSS VL: DIQVTQTPSSLSASLGDRVTISCRASQDISNYLNWYQQKPDGTVKLLIYYTSRLHSGVPSRFSGSGSGTDYSLTISNLDQEDIATYFCQQGNTLPPTFGGGTNLEIK"
binds,binds,binds,binds,binds,"anti-FLNA murine monoclonal antibody 6E3 (antibody, IgG1, V domains shown, also called clone 6E3; mab 6E3) VH: QVQLQQSGAELMKPGASVKLSCKATGYTFTGYWIEWVKQRPGHGLEWIGEILPGNGSTNCNEKFKGKATFTATTSSNTAYMQLSSLTTEDSAIYYCTTVSYWGQGTTLTVSS VL: DVVMTQTPLSLPVSLGDQASISCRSSQSLVHSNGNTYLHWYLQKPGQSPNLLIYKVSNRFSGVPDRFTGSGSGTDFTLKISRVEAEDLGVYFCSQSTHVPFTFGSGTKLEIK"
